Tested on: COLO 205
Experiment: Antiproliferative activity against human COLO205 cells assessed as reduction in cell viability incubated for 48 hrs by MTT assay
Format: functional, cell-based
Conditions: COLO 205, 48 h

`COc1cc2c(c(OC)c1OC)-c1ccc(OC)c(=O)cc1[C@@H](NC(C)=O)CC2` [COLCHICINE] gave an IC50 of 32 nM.

Source: ChEMBL document CHEMBL4321828, “Recent developments on (-)-colchicine derivatives: Synthesis and structure-activity relationship” (Eur J Med Chem, 2020)
